Reference: article PMC7694386

Amino acid sequences for entries named in this document (tags omitted).
UniProt O95817: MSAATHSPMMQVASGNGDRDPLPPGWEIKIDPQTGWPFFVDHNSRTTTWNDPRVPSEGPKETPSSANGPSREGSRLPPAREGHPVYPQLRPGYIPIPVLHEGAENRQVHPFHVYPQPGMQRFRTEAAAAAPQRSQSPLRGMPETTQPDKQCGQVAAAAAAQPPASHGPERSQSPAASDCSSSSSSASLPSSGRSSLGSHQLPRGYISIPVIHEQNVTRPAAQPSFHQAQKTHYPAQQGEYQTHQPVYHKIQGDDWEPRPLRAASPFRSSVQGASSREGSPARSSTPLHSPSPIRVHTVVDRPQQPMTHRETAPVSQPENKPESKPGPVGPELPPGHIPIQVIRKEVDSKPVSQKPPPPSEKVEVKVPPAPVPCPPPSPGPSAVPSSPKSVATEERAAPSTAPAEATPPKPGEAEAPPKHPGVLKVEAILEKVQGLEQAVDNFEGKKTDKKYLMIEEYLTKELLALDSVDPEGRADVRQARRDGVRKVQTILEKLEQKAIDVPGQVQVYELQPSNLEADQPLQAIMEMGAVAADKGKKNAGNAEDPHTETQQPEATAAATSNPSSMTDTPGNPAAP

B1: Kinesin-like protein KIF7 (protein, UniProt Q2M1P5 1-1343)
chain: MGLEAQRLPGAEEAPVRVALRVRPLLPKELLHGHQSCLQVEPGLGRVTLGRDRHFGFHVVLAEDAGQEAVYQACVQPLLEAFFEGFNATVFAYGQTGSGKTYTMGEASVASLLEDEQGIVPRAMAEAFKLIDENDLLDCLVHVSYLEVYKEEFRDLLEVGTASRDIQLREDERGNVVLCGVKEVDVEGLDEVLSLLEMGNAARHTGATHLNHLSSRSHTVFTVTLEQRGRAPSRLPRPAPGQLLVSKFHFVDLAGSERVLKTGSTGERLKESIQINSSLLALGNVISALGDPQRRGSHIPYRDSKITRILKDSLGGNAKTVMIACVSPSSSDFDETLNTLNYASRAQNIRNRATVNWRPEAERPPEETASGARGPPRHRSETRIIHRGRRAPGPATASAAAAMRLGAECARYRACTDAAYSLLRELQAEPGLPGAAARKVRDWLCAVEGERSALSSASGPDSGIESASVEDQAAQGAGGRKEDEGAQQLLTLQNQVARLEEENRDFLAALEDAMEQYKLQSDRLREQQEEMVELRLRLELVRPGWGGPRLLNGLPPGSFVPRPHTAPLGGAHAHVLGMVPPACLPGDEVGSEQRGEQVTNGREAGAELLTEVNRLGSGSSAASEEEEEEEEPPRRTLHLRRNRISNCSQRAGARPGSLPERKGPELCLEELDAAIPGSRAVGGSKARVQARQVPPATASEWRLAQAQQKIRELAINIRMKEELIGELVRTGKAAQALNRQHSQRIRELEQEAEQVRAELSEGQRQLRELEGKELQDAGERSRLQEFRRRVAAAQSQVQVLKEKKQATERLVSLSAQSEKRLQELERNVQLMRQQQGQLQRRLREETEQKRRLEAEMSKRQHRVKELELKHEQQQKILKIKTEEIAAFQRKRRSGSNGSVVSLEQQQKIEEQKKWLDQEMEKVLQQRRALEELGEELHKREAILAKKEALMQEKTGLESKRLRSSQALNEDIVRVSSRLEHLEKELSEKSGQLRQGSAQSQQQIRGEIDSLRQEKDSLLKQRLEIDGKLRQGSLLSPEEERTLFQLDEAIEALDAAIEYKNEAITCRQRVLRASASLLSQCEMNLMAKLSYLSSSETRALLCKYFDKVVTLREEQHQQQIAFSELEMQLEEQQRLVYWLEVALERQRLEMDRQLTLQQKEHEQNMQLLLQQSRDHLGEGLADSRRQYEARIQALEKELGRYMWINQELKQKLGGVNAVGHSRGGEKRSLCSEGRQAPGNEDELHLAPELLWLSPLTEGAPRTREETRDLVHAPLPLTWKRSSLCGEEQGSPEELRQREAAEPLVGRVLPVGEAGLPWNFGPLSKPRRELRRASPGMIDVRKNPL
B2: COPB2 (protein, UniProt P35606 1-906)
chain: MPLRLDIKRKLTARSDRVKSVDLHPTEPWMLASLYNGSVCVWNHETQTLVKTFEVCDLPVRAAKFVARKNWVVTGADDMQIRVFNYNTLERVHMFEAHSDYIRCIAVHPTQPFILTSSDDMLIKLWDWDKKWSCSQVFEGHTHYVMQIVINPKDNNQFASASLDRTIKVWQLGSSSPNFTLEGHEKGVNCIDYYSGGDKPYLISGADDRLVKIWDYQNKTCVQTLEGHAQNVSCASFHPELPIIITGSEDGTVRIWHSSTYRLESTLNYGMERVWCVASLRGSNNVALGYDEGSIIVKLGREEPAMSMDANGKIIWAKHSEVQQANLKAMGDAEIKDGERLPLAVKDMGSCEIYPQTIQHNPNGRFVVVCGDGEYIIYTAMALRNKSFGSAQEFAWAHDSSEYAIRESNSIVKIFKNFKEKKSFKPDFGAESIYGGFLLGVRSVNGLAFYDWDNTELIRRIEIQPKHIFWSDSGELVCIATEESFFILKYLSEKVLAAQETHEGVTEDGIEDAFEVLGEIQEIVKTGLWVGDCFIYTSSVNRLNYYVGGEIVTIAHLDRTMYLLGYIPKDNRLYLGDKELNIISYSLLVSVLEYQTAVMRRDFSMADKVLPTIPKEQRTRVAHFLEKQGFKQQALTVSTDPEHRFELALQLGELKIAYQLAVEAESEQKWKQLAELAISKCQFGLAQECLHHAQDYGGLLLLATASGNANMVNKLAEGAERDGKNNVAFMSYFLQGKVDACLELLIRTGRLPEAAFLARTYLPSQVSRVVKLWRENLSKVNQKAAESLADPTEYENLFPGLKEAFVVEEWVKETHADLWPAKQYPLVTPNEERNVMEEGKDFQPSRSTAQQELDGKPASPTPVIVASHTANKEEKSLLELEVDLDNLELEDIDTTDINLDEDILDD
B3: CEP55 (protein, UniProt Q53EZ4 1-464)
chain: MSSRSTKDLIKSKWGSKPSNSKSETTLEKLKGEIAHLKTSVDEITSGKGKLTDKERHRLLEKIRVLEAEKEKNAYQLTEKDKEIQRLRDQLKARYSTTTLLEQLEETTREGERREQVLKALSEEKDVLKQQLSAATSRIAELESKTNTLRLSQTVAPNCFNSSINNIHEMEIQLKDALEKNQQWLVYDQQREVYVKGLLAKIFELEKKTETAAHSLPQQTKKPESEGYLQEEKQKCYNDLLASAKKDLEVERQTITQLSFELSEFRRKYEETQKEVHNLNQLLYSQRRADVQHLEDDRHKTEKIQKLREENDIARGKLEEEKKRSEELLSQVQFLYTSLLKQQEEQTRVALLEQQMQACTLDFENEKLDRQHVQHQLHVILKELRKARNQITQLESLKQLHEFAITEPLVTFQGETENREKVAASPKSPTAALNESLVECPKCNIQYPATEHRDLLVHVEYCSK
B4: TTK (protein, UniProt P33981 1-857)
chain: MESEDLSGRELTIDSIMNKVRDIKNKFKNEDLTDELSLNKISADTTDNSGTVNQIMMMANNPEDWLSLLLKLEKNSVPLSDALLNKLIGRYSQAIEALPPDKYGQNESFARIQVRFAELKAIQEPDDARDYFQMARANCKKFAFVHISFAQFELSQGNVKKSKQLLQKAVERGAVPLEMLEIALRNLNLQKKQLLSEEEKKNLSASTVLTAQESFSGSLGHLQNRNNSCDSRGQTTKARFLYGENMPPQDAEIGYRNSLRQTNKTKQSCPFGRVPVNLLNSPDCDVKTDDSVVPCFMKRQTSRSECRDLVVPGSKPSGNDSCELRNLKSVQNSHFKEPLVSDEKSSELIITDSITLKNKTESSLLAKLEETKEYQEPEVPESNQKQWQSKRKSECINQNPAASSNHWQIPELARKVNTEQKHTTFEQPVFSVSKQSPPISTSKWFDPKSICKTPSSNTLDDYMSCFRTPVVKNDFPPACQLSTPYGQPACFQQQQHQILATPLQNLQVLASSSANECISVKGRIYSILKQIGSGGSSKVFQVLNEKKQIYAIKYVNLEEADNQTLDSYRNEIAYLNKLQQHSDKIIRLYDYEITDQYIYMVMECGNIDLNSWLKKKKSIDPWERKSYWKNMLEAVHTIHQHGIVHSDLKPANFLIVDGMLKLIDFGIANQMQPDTTSVVKDSQVGTVNYMPPEAIKDMSSSRENGKSKSKISPKSDVWSLGCILYYMTYGKTPFQQIINQISKLHAIIDPNHEIEFPDIPEKDLQDVLKCCLKRDPKQRISIPELLAHPYVQIQTHPVNQMAKGTTEEMKYVLGQLVGLNSPNSILKAAKTLYEHYSGGESHNSSSSKTFEKKRGKK
B5: kinesin KIF4A (protein, UniProt O95239 1-1232)
chain: MKEEVKGIPVRVALRCRPLVPKEISEGCQMCLSFVPGEPQVVVGTDKSFTYDFVFDPSTEQEEVFNTAVAPLIKGVFKGYNATVLAYGQTGSGKTYSMGGAYTAEQENEPTVGVIPRVIQLLFKEIDKKSDFEFTLKVSYLEIYNEEILDLLCPSREKAQINIREDPKEGIKIVGLTEKTVLVALDTVSCLEQGNNSRTVASTAMNSQSSRSHAIFTISLEQRKKSDKNSSFRSKLHLVDLAGSERQKKTKAEGDRLKEGININRGLLCLGNVISALGDDKKGGFVPYRDSKLTRLLQDSLGGNSHTLMIACVSPADSNLEETLNTLRYADRARKIKNKPIVNIDPQTAELNHLKQQVQQLQVLLLQAHGGTLPGSITVEPSENLQSLMEKNQSLVEENEKLSRGLSEAAGQTAQMLERIILTEQANEKMNAKLEELRQHAACKLDLQKLVETLEDQELKENVEIICNLQQLITQLSDETVACMAAAIDTAVEQEAQVETSPETSRSSDAFTTQHALRQAQMSKELVELNKALALKEALARKMTQNDSQLQPIQYQYQDNIKELELEVINLQKEKEELVLELQTAKKDANQAKLSERRRKRLQELEGQIADLKKKLNEQSKLLKLKESTERTVSKLNQEIRMMKNQRVQLMRQMKEDAEKFRQWKQKKDKEVIQLKERDRKRQYELLKLERNFQKQSNVLRRKTEEAAAANKRLKDALQKQREVADKRKETQSRGMEGTAARVKNWLGNEIEVMVSTEEAKRHLNDLLEDRKILAQDVAQLKEKKESGENPPPKLRRRTFSLTEVRGQVSESEDSITKQIESLETEMEFRSAQIADLQQKLLDAESEDRPKQRWENIATILEAKCALKYLIGELVSSKIQVSKLESSLKQSKTSCADMQKMLFEERNHFAEIETELQAELVRMEQQHQEKVLYLLSQLQQSQMAEKQLEESVSEKEQQLLSTLKCQDEELEKMREVCEQNQQLLRENEIIKQKLTLLQVASRQKHLPKDTLLSPDSSFEYVPPKPKPSRVKEKFLEQSMDIEDLKYCSEHSVNEHEDGDGDDDEGDDEEWKPTKLVKVSRKNIQGCSCKGWCGNKQCGCRKQKSDCGVDCCCDPTKCRNRQQGKDSLGTVERTQDSEGSFKLEDPTEVTPGLSFFNPVCATPNSKILKEMCDVEQVLSKKTPPAPSPFDLPELKHVATEYQENKAPGKKKKRALASNTSFFSGCSPIEEEAH
B6: Wolframin (protein, UniProt O76024 1-890)
chain: MDSNTAPLGPSCPQPPPAPQPQARSRLNATASLEQERSERPRAPGPQAGPGPGVRDAAAPAEPQAQHTRSRERADGTGPTKGDMEIPFEEVLERAKAGDPKAQTEVGKHYLQLAGDTDEELNSCTAVDWLVLAAKQGRREAVKLLRRCLADRRGITSENEREVRQLSSETDLERAVRKAALVMYWKLNPKKKKQVAVAELLENVGQVNEHDGGAQPGPVPKSLQKQRRMLERLVSSESKNYIALDDFVEITKKYAKGVIPSSLFLQDDEDDDELAGKSPEDLPLRLKVVKYPLHAIMEIKEYLIDMASRAGMHWLSTIIPTHHINALIFFFIVSNLTIDFFAFFIPLVIFYLSFISMVICTLKVFQDSKAWENFRTLTDLLLRFEPNLDVEQAEVNFGWNHLEPYAHFLLSVFFVIFSFPIASKDCIPCSELAVITGFFTVTSYLSLSTHAEPYTRRALATEVTAGLLSLLPSMPLNWPYLKVLGQTFITVPVGHLVVLNVSVPCLLYVYLLYLFFRMAQLRNFKGTYCYLVPYLVCFMWCELSVVILLESTGLGLLRASIGYFLFLFALPILVAGLALVGVLQFARWFTSLELTKIAVTVAVCSVPLLLRWWTKASFSVVGMVKSLTRSSMVKLILVWLTAIVLFCWFYVYRSEGMKVYNSTLTWQQYGALCGPRAWKETNMARTQILCSHLEGHRVTWTGRFKYVRVTDIDNSAESAINMLPFFIGDWMRCLYGEAYPACSPGNTSTAEEELCRLKLLAKHPCHIKKFDRYKFEITVGMPFSSGADGSRSREEDDVTKDIVLRASSEFKSVLLSLRQGSLIEFSTILEGRLGSKWPVFELKAISCLNCMAQLSPTRRHVKIEHDWRSTVHGAVKFAFDFFFFPFLSAA

Target: BAG3 (BCL-2-associated athanogene 3) (human (endogenous in HEK293T)) (UniProt O95817)
Assay: affinity purification with mass spectrometry; endogenous BAG3 immunoprecipitated with anti-BAG3 antibody and Protein A/G magnetic beads from HEK293T lysate; cells treated with DMSO (basal) or 10 µM MG132 for 6 h; IgG IP (MG132_IgG) as control; label-free quantification, three biological replicates

binding, binds:
B1
B2
B3
B4
B5
B6

Results are given in words; binding and its absence hold for the method and conditions named. Binding seen in cells or lysates may run through a third protein. Here binding means that the protein was enriched with, or labelled near, the bait; the list need not be complete.
